Results are given in words; binding and its absence hold for the method and conditions named. In cells and extracts the contact can be indirect. Some binding calls cover weakened binding; strength is not graded here. Where a sequence is shown, tags or fusion partners need not be part of it.

Amino acid sequences for entries named in this document (tags omitted).
UniProt P05804: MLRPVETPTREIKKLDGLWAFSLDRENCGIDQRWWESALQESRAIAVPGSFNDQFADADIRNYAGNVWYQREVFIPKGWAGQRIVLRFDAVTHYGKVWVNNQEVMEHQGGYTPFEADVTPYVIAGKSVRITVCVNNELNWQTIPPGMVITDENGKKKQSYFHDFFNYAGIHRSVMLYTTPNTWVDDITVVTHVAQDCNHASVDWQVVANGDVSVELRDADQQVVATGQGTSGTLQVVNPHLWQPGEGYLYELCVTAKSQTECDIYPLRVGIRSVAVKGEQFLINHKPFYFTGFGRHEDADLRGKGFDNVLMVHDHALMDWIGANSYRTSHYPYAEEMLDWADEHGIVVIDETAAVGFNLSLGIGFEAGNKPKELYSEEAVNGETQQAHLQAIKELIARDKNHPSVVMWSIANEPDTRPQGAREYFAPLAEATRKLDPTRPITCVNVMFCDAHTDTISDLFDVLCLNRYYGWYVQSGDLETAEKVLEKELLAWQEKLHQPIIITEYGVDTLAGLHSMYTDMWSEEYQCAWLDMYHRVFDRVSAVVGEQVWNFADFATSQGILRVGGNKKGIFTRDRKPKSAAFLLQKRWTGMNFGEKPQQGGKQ

The target of the assay is endogenous E. coli β-glucuronidase (E. coli) (UniProt P05804). The experiment in a line: co-purification on anti-idiotype column, SDS-PAGE.

B1: Fab BW 431/26-E. coli β-glucuronidase fusion protein (protein)
heavy: MEVQLQESGPGLVRPSQTLSLTCTVSGFTISSGYSWHWVRQPPGRGLEWIGYIQYSGITNYNPSLKSRVTMLVDTSKNQFSLRLSSVTAADTAVYYCAREDYDYHWYFDVWGQGSLVTVTVSSASTKGPSVFPLAPCSRSTSGGTAALGCLVKDYFPEPVTVSWNSGALTSGVHTFPAVLQSSGLYSLSSVVTVPSSSLGTQTYTCNVNHKPSNTKVDKRVELGSGSGSMVRPVETPTREIKKLDGLWAFSLDRENCGIDQRWWESALQESRAIAVPGSFNDQFADADIRNYAGNVWYQREVFIPKGWAGQRIVLRFDAVTHYGKVWVNNQEVMEHQGGYTPFEADVTPYVIAGKSVRITVCVNNELNWQTIPPGMVITDENGKKKQSYFHNFFNYAGIHRSVMLYTTPNTWVDDITVVTHVAQDCNHASVDWQVVANGDVSVELRDADQQVVATGQGTSGTLQVVNPHLWQPGEGYLYELCVTAKSQTECDIYPLRVGIRSVAVKGEQFLINHKPFYFTGFGRHEDADLRGKGFDNVLMVHDHALMDWIGANSYRTSHYPYAEEMLDWADEHGIVVIDETAAVGFNLSLGIGFEAGNKPKELYSEEAVNGETQQAHLQAIKELIARDKNHPSVVMWSIANEPDTRPQGAREYFAPLAEATRKLDPTRPITCVNVMFCDAHTDTISDLFDVLCLNRYYGWYVQSGDLETAEKVLEKELLAWQEKLHQPIIITEYGVDTLAGLHSMYTDMWSEEYQCAWLDMYHRVFDRVSAVVGEQVWNFADFATSQGILRVGGNKKGIFTRDRKPKSAAFLLQKRWTGMNFGEKPQQGGKQ
light: MDIQMTQSPSSLSASVGDRVTITCSTSSSVSYMHWYQQKPGKAPKLLIYSTSNLASGVPSRFSGSGSGTDFTFTISSLQPEDIATYYCHQWSSYPTFGQGTKVEIKRTVAAPSVFIFPPSDEQLKSGTASVVCLLNNFYPREAKVQWKVDNALQSGNSQESVTEQDSKDSTYSLSSTLTLSKADYEKHKVYACEVTHQGLSSPVTKSFNRGEC
On to B1, for which the binding result is given as “binds”.

Source of the values: patent US7314753.
